{"source": "patent US8541200B2", "about": "“Cleavage of fusion proteins using Granzyme B protease” (Hoffmann-La Roche Inc., priority 2003, dated 2013)", "assay": "Steady state kinetic parameters KM and kcat, Lineweaver-Burk plot", "assay_type": "biochemical", "conditions": "100 mM HEPES pH 7.75; 20 nM protease", "procedure": "To estimate the steady state kinetic parameters KM and kcat, the same colorimetric assay as described above was used with a total volume of 500 μl in the assay cuvette. The assay buffer was 100 mM HEPES pH 7.75, and both GrB-H6 and GrB-H6 C228F were used in a concentration of 20 nM in each measurement. To construct a Lineweaver-Burk plot the following substrate concentrations were used: 5, 40, 150, 300, and 600 μM.", "note": "At least one read-out could not be matched to a standard name with certainty.", "data": [{"substance": "GrB-H6: activated human Granzyme B with C-terminal hexa-His tag, from cleavage/activation of pro-IEGR-GrB-H6 by FXa", "values": [{"measurement": "kcat/KM", "value": "7.5 10^4 s^−1M^−1"}]}]}
